Test results published in paper PMC9448375 (Drug Delivery, 2022).

Experiment: Far-UV circular dichroism, secondary structure analysis (CDNN)
Assay type: physicochemical
Details: CDNN software; for Antiparallel (secondary structural composition) / Others (secondary structural composition) / Parallel (secondary structural composition) / α helix (secondary structural composition) / β turn (secondary structural composition): far-UV CD 195–260 nm, PBS pH 7.4, NaCl 150 mM, INS-equivalent 1 mg/mL, 25 °C; for β-sheet (secondary structural composition): sum of antiparallel and parallel, far-UV CD

Dissociated INS: INS dissociated from the INS–SOS complex
Antiparallel (secondary structural composition): 7.4% | Others (secondary structural composition): 30.6% | Parallel (secondary structural composition): 7.9% | α helix (secondary structural composition): 36.7% | β turn (secondary structural composition): 16.2% | Others (secondary structural composition) (listed as dissociated INS): 30.6% | α helix (secondary structural composition) (listed as dissociated INS): 36.7% | β turn (secondary structural composition) (listed as dissociated INS): 16.2% | β-sheet (secondary structural composition): 15.3%

Insulin
Antiparallel (secondary structural composition): 6.9% | Others (secondary structural composition): 29.8% | Parallel (secondary structural composition): 7.7% | α helix (secondary structural composition): 38.0% | β turn (secondary structural composition): 16.0% | Others (secondary structural composition) (listed as INS solution): 29.8% | α helix (secondary structural composition) (listed as INS solution): 38.0% | β turn (secondary structural composition) (listed as INS solution): 16.0% | β-sheet (secondary structural composition): 14.6%
